{"source": "patent US8507439B2", "about": "“Neuroprotective and neurorestorative method and compositions” (priority 2005, dated 2013)", "system": "noradrenergic neurons in the striatum", "experiment": "Survival of noradrenergic neurons in the MPTP mouse model for Parkinson's disease", "assay_type": "in vivo", "excerpt": "Tests were done in the MPTP mouse model for Parkinson's disease.", "note": "Part of at least one peptide drawing is inferred or uncertain, most often the ends. Residues, ends and D or L forms follow the SMILES beside them. ξ: configuration not given here. *: point of attachment. Lipoyl(6ξ) = O=C(CCCCC1CCSS1)*", "data": [{"smiles": "CC(C)[C@H](NC(=O)[C@H](CCC(=O)O)NC(=O)CCCCC1CCSS1)C(=O)N[C@@H](CC(=O)O)C(=O)N[C@@H](CC(=O)O)C(=O)N[C@@H](CC(=O)O)C(=O)N[C@@H](CCC(N)=O)C(=O)O", "note": "(some centres unmarked) [[Lip]-EVDDDQ] ({Lipoyl(6ξ)}-EVDDDQ-OH; C-terminus assumed)", "values": [{"measurement": "survival of noradrenergic cells (viable)", "setting": "MPTP 30 mg/Kg IP, peptide dose with MPTP followed by a daily additional dose, 4 days, n=5", "value": 26.9, "unit": "%"}, {"measurement": "increase of the survival of noradrenergic neurons in the striatum", "setting": "MPTP mouse model, versus control", "value": 2.2, "unit": "fold"}]}]}
